The structures given here were assigned with low confidence; some may be wrong.
What was measured:
[1] = target: Flt-4 (baculovirus expressed human Flt-4 kinase domain D725-R1298) (Homo sapiens, UniProt P35916); assay: flt-4 Alphascreen Tyrosine Kinase assay; assay type: biochemical; conditions: read-out: flt4 IC50; Table 4, inhibition as IC50 class;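 also: AlphaScreen chemiluminescence read-out of biotinylated poly(Glu,Tyr) 4:1 phosphorylation via streptavidin donor and PY100 anti-phosphotyrosine acceptor beads, ATP near KM, 1 hr kinase reaction, 10-point dose-response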
c-Kit kinase = c-Kit kinase (Homo sapiens, UniProt P10721); assay: c-Kit AlphaScreen kinase assay; assay type: biochemical; conditions: read-out: c-Kit IC50; Table 4, inhibition as IC50 class;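 also: c-Kit kinase phosphorylating biotinylated poly(Glu,Tyr), ATP near its KM, 1 h reaction at ambient temperature, AlphaScreen chemiluminescence with streptavidin donor and anti-phosphotyrosine acceptor beads, 10-point inhibitor titration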
[2] = target: Flt-3 (baculovirus expressed human Flt-3 kinase domain R571-S993) (Homo sapiens, UniProt P36888); conditions: read-out: flt3 IC50; Table 4, inhibition as IC50 class;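 also: Luciferase-coupled chemiluminescent kinase assay, activity read as percent ATP left after a 3 h reaction at room temperature, ATP near KM, 10-point dose-response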

Amino acid sequences for entries named in this document (tags omitted). Residues count along the entry.
UniProt P35916, 725-1298 isoform 1 limits assumed: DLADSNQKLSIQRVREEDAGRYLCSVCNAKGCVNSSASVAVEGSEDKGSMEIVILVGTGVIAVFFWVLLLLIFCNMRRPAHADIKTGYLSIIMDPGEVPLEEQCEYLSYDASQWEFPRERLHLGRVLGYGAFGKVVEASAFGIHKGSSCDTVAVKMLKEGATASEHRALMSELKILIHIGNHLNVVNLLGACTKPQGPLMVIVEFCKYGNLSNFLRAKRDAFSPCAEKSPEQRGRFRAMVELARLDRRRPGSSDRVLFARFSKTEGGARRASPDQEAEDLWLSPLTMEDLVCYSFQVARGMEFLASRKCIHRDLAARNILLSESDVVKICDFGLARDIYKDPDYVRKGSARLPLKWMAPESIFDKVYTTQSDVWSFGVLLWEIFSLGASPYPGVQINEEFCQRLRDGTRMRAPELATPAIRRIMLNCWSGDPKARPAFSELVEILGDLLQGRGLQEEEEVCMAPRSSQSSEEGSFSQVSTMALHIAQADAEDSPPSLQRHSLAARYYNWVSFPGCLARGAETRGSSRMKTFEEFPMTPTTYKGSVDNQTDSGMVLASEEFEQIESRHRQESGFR
UniProt P10721, 26-976 limits assumed: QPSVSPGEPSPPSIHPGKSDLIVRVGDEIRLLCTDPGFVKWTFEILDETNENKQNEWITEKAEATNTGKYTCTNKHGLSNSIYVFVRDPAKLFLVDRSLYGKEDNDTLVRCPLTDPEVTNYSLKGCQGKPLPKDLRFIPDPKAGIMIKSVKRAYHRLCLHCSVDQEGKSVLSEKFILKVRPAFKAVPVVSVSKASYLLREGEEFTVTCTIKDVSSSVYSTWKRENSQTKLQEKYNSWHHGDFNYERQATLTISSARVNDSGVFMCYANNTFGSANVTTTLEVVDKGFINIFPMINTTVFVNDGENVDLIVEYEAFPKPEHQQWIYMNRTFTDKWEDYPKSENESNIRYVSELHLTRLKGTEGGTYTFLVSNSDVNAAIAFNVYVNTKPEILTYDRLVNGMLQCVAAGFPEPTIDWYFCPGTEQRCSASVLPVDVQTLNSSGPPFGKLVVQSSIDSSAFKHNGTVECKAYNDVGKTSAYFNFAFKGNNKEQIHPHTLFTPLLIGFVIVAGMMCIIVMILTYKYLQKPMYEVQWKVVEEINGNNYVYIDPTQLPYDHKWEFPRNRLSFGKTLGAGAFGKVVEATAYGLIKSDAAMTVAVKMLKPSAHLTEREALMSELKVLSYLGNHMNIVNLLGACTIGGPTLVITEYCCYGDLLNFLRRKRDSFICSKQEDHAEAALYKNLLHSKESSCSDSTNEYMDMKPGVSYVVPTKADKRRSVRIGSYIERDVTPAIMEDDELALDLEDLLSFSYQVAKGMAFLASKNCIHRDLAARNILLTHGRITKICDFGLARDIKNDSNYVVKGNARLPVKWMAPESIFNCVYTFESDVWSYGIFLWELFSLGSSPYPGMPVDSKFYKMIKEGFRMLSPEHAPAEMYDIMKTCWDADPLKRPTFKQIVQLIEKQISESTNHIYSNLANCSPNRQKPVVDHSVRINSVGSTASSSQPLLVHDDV
UniProt P36888, 571-993 limits assumed: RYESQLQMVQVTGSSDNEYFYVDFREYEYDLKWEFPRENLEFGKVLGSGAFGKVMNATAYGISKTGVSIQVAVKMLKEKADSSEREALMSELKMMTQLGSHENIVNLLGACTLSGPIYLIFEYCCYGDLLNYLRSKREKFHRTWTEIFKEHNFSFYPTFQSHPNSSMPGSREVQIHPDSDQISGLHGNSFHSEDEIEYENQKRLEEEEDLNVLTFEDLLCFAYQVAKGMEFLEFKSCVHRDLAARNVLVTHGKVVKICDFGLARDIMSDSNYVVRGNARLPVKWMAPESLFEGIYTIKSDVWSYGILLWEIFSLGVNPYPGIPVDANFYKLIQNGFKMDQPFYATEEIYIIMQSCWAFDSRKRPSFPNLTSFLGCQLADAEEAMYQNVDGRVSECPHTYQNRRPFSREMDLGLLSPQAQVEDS

| Structure (SMILES) | IC50 [1] | IC50 (c-Kit kinase) | IC50 [2] |
| --- | --- | --- | --- |
| COc1cc2c(Oc3ccc(NC(=O)C(=O)NCc4ccccc4C(F)(F)F)cc3F)ccnc2cc1OCC1CCNCC1 | < 50 nM | < 50 nM | < 50 nM |
| COc1cc2c(Oc3ccc(NC(=O)C(=O)NCCc4ccccc4Br)cc3F)ccnc2cc1OCC1CCNCC1 | < 50 nM | < 50 nM | < 50 nM |
| COc1ccc(CNC(=O)C(=O)Nc2ccc(Oc3ccnc4cc(OCC5CCNCC5)c(OC)cc34)c(F)c2)cc1 | 50 to 500 nM | < 50 nM |  |
| COc1cc2c(Oc3ccc(NC(=O)C(=O)NC[C@H](C)c4ccccc4)cc3F)ccnc2cc1OCC1CCNCC1 | < 50 nM | < 50 nM | 50 to 500 nM |
| COc1cc2c(Oc3ccc(NC(=O)C(=O)NCCc4c(Br)cccc4OC)cc3F)ccnc2cc1OCC1CCNCC1 | < 50 nM | < 50 nM | < 50 nM |
| COc1cccc(CNC(=O)C(=O)Nc2ccc(Oc3ccnc4cc(OCC5CCNCC5)c(OC)cc34)c(F)c2)c1 | 50 to 500 nM | < 50 nM | < 50 nM |
| COc1cc2c(Oc3ccc(NC(=O)C(=O)NCc4ccccc4F)cc3F)ccnc2cc1OCC1CCNCC1 | < 50 nM | 50 to 500 nM |  |
| COc1cc2c(Oc3ccc(NC(=O)C(=O)NCc4ccc(F)cc4)cc3F)ccnc2cc1OCC1CCNCC1 | < 50 nM | < 50 nM | < 50 nM |
| COc1cc2c(Oc3ccc(NC(=O)C(=O)NCc4ccc(C(F)(F)F)cc4)cc3F)ccnc2cc1OCC1CCN(C)CC1 | 50 to 500 nM | 50 to 500 nM |  |
| COc1cc2c(Oc3ccc(NC(=O)C(=O)NCc4ccc(C(F)(F)F)cc4)cc3F)ccnc2cc1OCC1CCNCC1 | < 50 nM | 50 to 500 nM |  |

From patent US8476298B2 (Exelixis, Inc., priority 2003, dated 2013)
